Primary screen of a compound library

Sequences of proteins named here, by UniProt entry; tags and fusion partners are left off.
UniProt I6X8D2, whole entry: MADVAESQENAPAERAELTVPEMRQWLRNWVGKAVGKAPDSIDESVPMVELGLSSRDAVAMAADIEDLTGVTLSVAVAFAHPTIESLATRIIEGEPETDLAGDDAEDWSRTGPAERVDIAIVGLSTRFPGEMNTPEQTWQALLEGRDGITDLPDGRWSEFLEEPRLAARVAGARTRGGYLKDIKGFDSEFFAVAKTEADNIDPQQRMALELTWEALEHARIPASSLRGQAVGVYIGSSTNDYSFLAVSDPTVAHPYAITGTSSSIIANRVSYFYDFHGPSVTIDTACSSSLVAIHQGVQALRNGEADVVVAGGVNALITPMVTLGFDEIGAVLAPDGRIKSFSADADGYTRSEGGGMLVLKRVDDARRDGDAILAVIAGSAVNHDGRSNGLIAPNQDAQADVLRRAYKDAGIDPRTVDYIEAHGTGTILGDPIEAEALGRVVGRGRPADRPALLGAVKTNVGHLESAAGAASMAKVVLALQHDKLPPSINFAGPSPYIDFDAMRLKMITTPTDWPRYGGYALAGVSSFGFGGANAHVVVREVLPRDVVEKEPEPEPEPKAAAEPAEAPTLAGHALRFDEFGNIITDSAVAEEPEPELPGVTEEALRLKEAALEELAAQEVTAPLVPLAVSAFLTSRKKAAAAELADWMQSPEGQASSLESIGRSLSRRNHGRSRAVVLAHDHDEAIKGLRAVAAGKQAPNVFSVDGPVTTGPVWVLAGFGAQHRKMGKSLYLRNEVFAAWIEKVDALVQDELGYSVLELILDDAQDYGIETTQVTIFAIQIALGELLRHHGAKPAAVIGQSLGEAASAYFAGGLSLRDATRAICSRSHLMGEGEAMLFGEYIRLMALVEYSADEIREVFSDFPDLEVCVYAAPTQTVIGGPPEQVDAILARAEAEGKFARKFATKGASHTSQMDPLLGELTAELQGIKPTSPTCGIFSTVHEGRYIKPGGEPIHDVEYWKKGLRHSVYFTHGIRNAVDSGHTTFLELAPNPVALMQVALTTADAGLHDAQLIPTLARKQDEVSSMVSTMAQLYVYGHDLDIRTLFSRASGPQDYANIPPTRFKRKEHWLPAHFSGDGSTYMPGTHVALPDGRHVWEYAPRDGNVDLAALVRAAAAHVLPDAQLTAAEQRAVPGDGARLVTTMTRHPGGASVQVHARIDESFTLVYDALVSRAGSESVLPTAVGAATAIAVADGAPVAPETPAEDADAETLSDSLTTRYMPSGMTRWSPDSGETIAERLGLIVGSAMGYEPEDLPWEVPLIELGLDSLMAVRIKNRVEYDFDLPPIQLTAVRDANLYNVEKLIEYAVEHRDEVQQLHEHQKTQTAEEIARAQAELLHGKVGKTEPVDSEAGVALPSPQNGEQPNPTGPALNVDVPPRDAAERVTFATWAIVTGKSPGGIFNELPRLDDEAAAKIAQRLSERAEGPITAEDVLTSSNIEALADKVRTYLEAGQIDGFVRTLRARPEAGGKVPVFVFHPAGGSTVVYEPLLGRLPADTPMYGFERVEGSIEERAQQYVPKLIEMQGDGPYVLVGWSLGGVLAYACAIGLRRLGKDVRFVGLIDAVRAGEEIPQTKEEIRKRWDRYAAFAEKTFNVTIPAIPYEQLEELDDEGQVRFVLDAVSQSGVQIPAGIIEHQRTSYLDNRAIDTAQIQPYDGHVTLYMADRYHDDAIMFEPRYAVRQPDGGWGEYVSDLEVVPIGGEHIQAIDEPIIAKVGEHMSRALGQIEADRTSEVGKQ

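Enzyme assay of the thioesterase domain of polyketide synthase 13; the read-out is not stated. Target: Polyketide synthase Pks13, Mycobacterium tuberculosis (UniProt I6X8D2). Concentration: 30 µM. The record gives no direction; the compounds picked for IC50 retests had high values, so higher reads as stronger inhibition. Size under these conditions: about 67,000 compounds, about 300 of them at 50% or above in at least one test.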

Each number is a percent effect as filed. The controls that fix the scale are not given in the record; negative values are as filed. Compounds were drawn at random from those tested, without regard to their results.

structure,effect
COc1ccccc1C1Cn2ccnc2CN1Cc1c[nH]nc1C (stereo unspecified),5.467
O=C1NC[C@H]2CN(C3CCOCC3)CCN12,-36.29
O=C(NCCCn1ccnn1)C1CCCN(C2CCCC2)C1 (stereo unspecified),-25.75
CN(Cc1noc2c1CCCC2)C(=O)C1CCOc2ccccc2C1 (stereo unspecified),-18.2
CS(=O)(=O)c1ccc(CN2C[C@H]3CC[C@@H]2CN(c2ncccn2)C3)cc1,-16.81
CCCN1C(=O)[C@H]2CC[C@@H]1CN(S(=O)(=O)c1cccc(Cl)c1)C2,-21.25
O=C(NCCNc1cc(N2CCCC2)ncn1)c1cnccn1,-16.74
CCOc1ccc(C(=O)N2CCCCC2Cn2nc(C)cc2C)cn1 (stereo unspecified),-11.97
O=C(CCn1cc(Cl)cn1)Nc1ncccn1,-8.505
O=C(Cn1cc(-c2ccccc2)ncc1=O)Nc1ncc[nH]1,-12.12
CCN(C)Cc1n[nH]c(=O)n1-c1ccc(C)c(C)c1,-8.277
CC(C)(C)CN(CCC#N)C(=O)c1cccc(CC#N)c1,-9.717
COCC(=O)N1CCc2[nH]c(=O)ccc2C1,13.09
COc1ccc2c(ccn2CCC(=O)O)c1,-16.84
COCc1noc(-c2nn(-c3ccc(F)c(F)c3)c3c2CCC3)n1,-18.11
CCOC(=O)Cc1csc(NC(=O)c2ccc(=O)[nH]n2)n1,-3.359
CCOC[C@@H]1CCC[C@]12CN(S(=O)(=O)c1cn(C)cn1)CCO2,-3.971
CN1CCN(c2cc(Sc3cccs3)nc(N)n2)CC1CCO (stereo unspecified),1.757
O=S1(=O)CCC(N(CCc2ccc3c(c2)CCO3)C2CC2)C1 (stereo unspecified),-1.413
COc1nn(C)cc1C(=O)NCC(=O)Nc1cccnc1,-36.42
Cc1nc(C)n(C2CCCN(C(=O)c3ccc(O)nc3)C2)n1 (stereo unspecified),-17.12
Cc1nnc(CCNC(=O)c2coc(CN3CCOCC3)c2)s1,-17
CC(=O)N1CCOC2(CCN(C(=O)c3cnoc3C)CC2)C1,-3.947
CCN1CCc2c(cccc2NC(=O)CN(C)C2CCSC2)C1 (stereo unspecified),-27.93
Cc1ccc(OCCN(C)Cc2nc3c(cnn3C)c(=O)[nH]2)cc1,4.17
O=C1CO[C@H]2CN(C3CCOCC3)C[C@H]2N1Cc1ccncc1,-35.65
CCN1CCN(c2ncc3c(=O)n(Cc4ccco4)ccc3n2)CC1,-10.51
COCC1CN(Cc2ccsc2)Cc2nn(C)cc21 (stereo unspecified),-8.273
O=C(Nc1ccnc(OC2CCOC2)c1)c1ccccc1Cl (stereo unspecified),-23.77
O=S1(=O)C[C@@H]2[C@H](C1)N(Cc1cc(Cl)cc(Cl)c1)CCN2CCO,-15.61
O=C(NCC(O)c1ccc(F)cc1F)c1cccnc1O (stereo unspecified),6.222
CCC[C@H]1CN(S(=O)(=O)c2ccc(CC)s2)C[C@@H]1N,-9.704
Cc1ccc(C)c(CC(=O)NC2CCC(N3C(=O)CCC3=O)CC2)c1 (stereo unspecified),-4.322
CN(C)c1cccc(C(=O)N2CCn3c(nnc3-c3ccccc3)C2)c1,-40.94
C[C@@H]1CN(CC(C)(C)N2CCCCC2)CC[C@@]1(O)C1CC1,-13.38
CC(=O)N1CCCC1c1nccnc1Nc1ncccn1 (stereo unspecified),-30.35
CC(C)CN(Cc1ccccn1)Cc1ccccc1OCC(=O)O,-20.54
Cc1nc[nH]c1CN1CCCC(CNC(=O)c2ccc(N)nc2)C1 (stereo unspecified),-33.06
CCN1CC(C(=O)NCc2cccc(SC)c2)CC1=O (stereo unspecified),-7.201
O=C(NC1=NCCS1)C1CSCN1C(=O)C1CCCC1 (stereo unspecified),-13.73
Cc1nc(N2CCOCC2)ncc1-c1cc(O)nc(N2CCCC2)n1,44.48
Cc1[nH]c2ccccc2c1-c1ccnc(N[C@@H](CO)C(C)C)n1,17.63
CCn1cc(CN2CCCN(C(=O)c3sccc3C#N)CC2)cn1,-15.56
NC(=O)CN(CC(=O)NCCc1c(F)cccc1F)C1CCCC1,-27.25
COCCN1C[C@@H]2[C@@H](OC)CCN(S(=O)(=O)c3cccnc3)[C@@H]2C1,-11.65
O=C(C1CCOC1)N1CCC(Cn2cc(-c3ccsc3)nn2)CC1 (stereo unspecified),-22.4
N#CC1(C(=O)N2CCCN(c3nccs3)CC2)CCCCC1,-4.145
CCOCCN(C)C(c1cccnc1)c1ccc(F)cc1F (stereo unspecified),-11.05
CCOc1ccc(C(=O)N2CCCC2Cn2cc(C)cn2)cn1 (stereo unspecified),-5.299
Cc1nc(CN2CCN(c3cncc(Cl)n3)CC2)no1,3.706
N#Cc1cc(Cn2cnc(C3CCC3)cc2=O)ccc1F,-3.591
CC(C)Cc1nnc2sc(-c3cc(C(C)C)n[nH]3)nn12,-14.18
O=C(c1ccccn1)N1CCc2nc(-c3cnccn3)nc(O)c2C1,-30.36
COc1ccc(-c2csc(-c3cccc(C(=O)O)c3)n2)cc1OC,-42.46
Cc1c[nH]c(CN2CCC3(CCCN(Cc4ccc(F)c(F)c4)C3)C2)n1 (stereo unspecified),-12.94
CC(C)COCC1CN(Cc2ccsc2)Cc2ncn(C)c21 (stereo unspecified),-11.1
COCCN1C[C@H]2CN(C(=O)c3ccno3)CCN2C1=O,18.02
CS(=O)(=O)N1CCO[C@@H]2CN(C(=O)c3cccnc3)C[C@@H]2C1,4.001
Cc1cccc(CO[C@@H]2CC[C@H]3[C@H]2OCCN3Cc2nccs2)n1,-27.12
COc1cccc(N2CCC(CNc3cc(C)nc4ncnn34)C2)c1 (stereo unspecified),-25.78
c1ccn2cc(CN3CCCC(c4ccn[nH]4)C3)nc2c1 (stereo unspecified),11.56
Cc1nc2c(c(=O)n1C)CN(C(=O)C1CCCN(C(N)=O)C1)C2 (stereo unspecified),-13.15
CN1CCC(N(C)CCC(=O)N2CCC(Oc3ccc(Cl)cc3)CC2)C1 (stereo unspecified),-17.19
Cc1cc(C2CCCN2C(=O)c2ccc(OCC(N)=O)cc2)no1 (stereo unspecified),-39.84
CC(=O)N1CC[C@@H]2O[C@@H](COCC(=O)N3CCCC3)CC[C@@H]21,9.539
NC(Cc1nc(-c2ccccc2)no1)c1ccccc1 (stereo unspecified),-8.103
O=C(CCc1cc2n(n1)CCCN(C(=O)[C@H]1CCCO1)C2)NC1CC1,-10.9
Cn1ccnc1C1CCN(C(=O)COCC(F)(F)C(F)F)CC1,-10.59
CCN(CC1CCOC1)C(=O)c1ccccc1NS(=O)(=O)CC (stereo unspecified),-5.782
Cc1ccc([C@@H]2CN(C(=O)CCc3cc(Cl)no3)C[C@H]2N(C)C)cc1,-3.754
c1ccc(CCCN2CCCC(Nc3cnc4ccccc4n3)C2)cc1 (stereo unspecified),5.577
CCCc1nccn1-c1cccc(CN2CCCC2)c1,0.3872

The first 6 entries again:

* COc1ccccc1C1Cn2ccnc2CN1Cc1c[nH]nc1C (stereo unspecified) | 5.467%
* O=C1NC[C@H]2CN(C3CCOCC3)CCN12 | -36.29%
* O=C(NCCCn1ccnn1)C1CCCN(C2CCCC2)C1 (stereo unspecified) | -25.75%
* CN(Cc1noc2c1CCCC2)C(=O)C1CCOc2ccccc2C1 (stereo unspecified) | -18.2%
* CS(=O)(=O)c1ccc(CN2C[C@H]3CC[C@@H]2CN(c2ncccn2)C3)cc1 | -16.81%
* CCCN1C(=O)[C@H]2CC[C@@H]1CN(S(=O)(=O)c1cccc(Cl)c1)C2 | -21.25%

Source: ChEMBL document CHEMBL3988442, “University of Dundee, Small-Polar-MMV Screening Library” (2021).